These are yes or no findings as the source states them, for the method shown. Some results given as binding are weak or reduced against the parent protein; the word gives no strength.

Consider one molecule from US20080112949A1.

Assay [1] deals with chimpanzee CD4 (chimpanzee) (UniProt P16004). Kind of assay: cross-reactivity screen of primate species; format not described.
For the next assay, the target named is human CD4 (human) (UniProt P01730). The assay is described as above.

B1: TRX1 humanized anti-CD4 antibody (aglycosyl IgG1, Asn to Ala at position 297 of the heavy chain constant region) (antibody, V domains shown)
VH: QVQLVQSGAEVKKPGASVKVSCKASGYTFTAYVISWVRQAPGQGLEWMGEIYPGSGSSYYNEKFKGRVTMTRDTSTSTVYMELSSLRSEDTAVYYCARSGDGSRFVYWGQGTLVTVSS
VL: DIVMTQSPDSLAVSLGERATINCKASQSVDYDGDSYMNWYQQKPGQPPKLLIYVASNLESGVPDRFSGSGSGTDFTLTISSLQAEDVAVYYCQQSLQDPPTFGGGTKVEIKR
B1: the binding result (in assay [1]; in the assay with human CD4 (human)) was “binds” throughout.
